# Measured values published in PubChem BioAssay AID540256 (National Center for Advancing Translational Sciences (NCATS), 2011).
# The campaign covered roughly 300,000 compounds. About 3,700 (1.2%) were called active. The shares of active, inactive and inconclusive entries below differ from those in the screen. Calls follow the shape of the full dose curve; tested in HEK293 cells. Potencies beside an inconclusive call are fits to weak or partial responses and may not hold up.
# Assay: qHTS for Inhibitors of binding or entry into cells for Lassa Virus; also: nearly all actives have a fitted effect of over 50% in size
# Conditions: Lassa virus pseudotype entry inhibition, cell reporter; series mostly up to 37.9 µM
# Potency is read from the fitted curve at half-maximal effect.
row,Structure (SMILES),Potency
1,CC(C)Cn1c(O)c(/C=C2\C=NN=C2c2ccccc2)sc1=S,active: 12.6 µM
2,Cc1ccc(C)c(-c2ccc(=O)n(Cc3cccc(Br)c3)n2)c1,"inconclusive: 3.16 µM [inhibitor, single point]"
3,Cc1ccc(Cl)cc1N1CCN(C(=O)c2cnc(N3CCOCC3)c3ccccc23)CC1,"inconclusive: 35.5 µM [inhibitor, single point]"
4,CN(c1ccccc1)S(=O)(=O)c1cccc(NC(=O)c2ccc(Cl)c([N+](=O)[O-])c2)c1,"inconclusive: 35.5 µM [inhibitor, single point]"
5,CCOC(=O)c1c(-c2ccccc2)nc2ccc(Cl)cn12,"inconclusive: 25.9 µM [inhibitor, partial curve, poor fit]"
6,CCOc1ccc(-n2c(Cc3ccccc3)nnc2SCc2nc(-c3ccccc3OC)no2)cc1,"inconclusive: 5.62 µM [inhibitor, full curve]"
7,CCc1ccc(C2c3c(-c4ccccc4O)n[nH]c3C(=O)N2Cc2ccncc2)cc1 (stereo not given),"inconclusive: 2 µM [inhibitor, full curve, poor fit]"
8,C/C(CC(=O)N1CCN(C=O)CC1)=N\NC(=O)c1ccc(Br)cc1,"inconclusive: 7.94 µM [inhibitor, partial curve, poor fit]"
9,CC1=CC(C)(C)Nc2ccc(OC(=O)CCN3C(=O)c4ccccc4C3=O)cc21,"inconclusive: 35.5 µM [inhibitor, single point]"
10,C/C(Cc1ccccc1)=N\NC(=O)c1ccc(F)cc1,"inconclusive: 18.3 µM [activator, partial curve, poor fit]"
11,COc1ccccc1-c1nc2c(c(SCc3cccc(Cl)c3)n1)Cc1c(CO)cnc(C)c1O2,inactive
12,CCOC(=O)c1ccccc1NC(=O)N1CCc2c(sc(C)c2CC)C1c1ccccc1 (stereo not given),inactive
13,CC(C)Cn1cnc2c1c(=O)n(CC(O)c1ccccc1)c(=O)n2CC(C)C (stereo not given),"inconclusive: 0.13 µM [inhibitor, full curve, poor fit]"
14,Cc1cccc(NC(=O)C(=O)NCC(c2ccc3c(c2)OCO3)N2CCOCC2)c1C (stereo not given),inactive
15,O=C(c1ccc(C(F)(F)F)cc1)N1CCC(=O)N(C(COCc2ccc(Cl)cc2)Cc2ccccc2)CC1 (stereo not given),"inconclusive: 5.8 µM [inhibitor, partial curve, poor fit]"
16,CCc1nc2ccccc2c(=O)n1NCCc1ccccc1,inactive
17,N#Cc1ccccc1OCCCNC1CCCC1,"inconclusive: 0.562 µM [inhibitor, full curve, poor fit]"
18,CC(=O)Nc1ccc(C(=O)CSc2cc(C)c3cccc(C)c3n2)cc1,inactive
19,CN(/N=C/c1c[nH]c2ccccc12)c1cnn(-c2ccc(F)c(Cl)c2)c(=O)c1Cl,inactive
20,COc1ccc(-c2ccncc2)cc1C(N)=O,"inconclusive: 7.91 µM [activator, single point]"
21,CC(C)CCNC(=O)CCCN1C(=O)c2ccccc2Sc2ncccc21,"inconclusive: 6.31 µM [activator, single point]"
22,Cc1ccc(S(=O)(=O)N(CCC(=O)NCc2ccc(S(N)(=O)=O)cc2)c2ccccc2)cc1,"inconclusive: 0.316 µM [inhibitor, partial curve, poor fit]"

row,Structure (SMILES),Potency
1,COc1ccc2c(c1)c1c(c(=O)n(-c3cccc(C)c3)c(=O)n1CC(=O)NCc1ccc(C)cc1)n2C,inactive
2,COc1cc(C(=O)NCc2ccccc2)cc(Br)c1OC,"inconclusive: 11.2 µM [activator, partial curve, poor fit]"
3,Cc1cccc(OCC(=O)OC(C)C(=O)Nc2ccc(S(=O)(=O)N3CCCCC3)cc2)c1 (stereo not given),"inconclusive: 20 µM [activator, partial curve, poor fit]"
4,COc1cc2nc(CSc3nc(-c4ccc(F)cc4)cs3)[nH]c(=O)c2cc1OC,"inconclusive: 10 µM [inhibitor, partial curve]"
5,CC(C)(C)c1ccc(C(=O)NC(Cc2c[nH]c3ccccc23)C(=O)OCC(=O)c2ccc(Br)cc2)cc1 (stereo not given),"inconclusive: 2.24 µM [inhibitor, full curve, poor fit]"
6,CS(=O)(=O)N(Cc1ccccc1)c1ccc(C(=O)N2CCc3ccccc3C2)cc1,"inconclusive: 0.73 µM [inhibitor, full curve, poor fit]"
7,CCC(C)C1Nc2ccc(C(=O)NCCc3ccc(OC)c(OC)c3)cc2NC1=O (stereo not given),"inconclusive: 5.62 µM [inhibitor, single point]"
8,CCCCOc1cccc(C(=O)NNC(=S)NC2CCCCC2)c1,"inconclusive: 35.5 µM [inhibitor, single point]"
9,CCOC(=O)c1c(NC(=O)CN2C(=O)NC3(CCCCCC3)C2=O)sc(C)c1-c1ccc(C)cc1,"inconclusive: 10 µM [inhibitor, partial curve, poor fit]"
10,CCc1ccc(NC(=O)CC2S/C(=N/N=C3CCCCCC3)NC2=O)cc1 (stereo not given),inactive
11,Cn1cc(C(=O)Nc2ccccn2)c(=O)c2ccccc21,inactive
12,Cc1ccc(Nc2nc(Nc3ccc(C)cc3)nc(SC3=NCCS3)n2)cc1,"inconclusive: 20.6 µM [inhibitor, single point]"
13,OCCCNc1ncnc2sc(-c3ccccc3)cc12,"inconclusive: 25.1 µM [inhibitor, single point]"
14,Cc1ccc(CN2CCN(C(=O)CCc3ccccc3)CC2)cc1,"inconclusive: 11.2 µM [inhibitor, partial curve]"
15,COc1cccc(C(=O)NCCn2ccc3ccccc32)c1,"inconclusive: 2.31 µM [activator, full curve, poor fit]"
16,COC(=O)Nc1nnc(/C=C/c2ccccc2)s1,inactive
17,O=C(O)CCC(=O)Nc1ccc(SSc2ccc(NC(=O)CCC(=O)O)cc2)cc1,"inconclusive: 6.31 µM [inhibitor, single point]"
18,O=C(CCc1ccccc1)Nc1ccc(N2CCCCC2)cc1,"inconclusive: 6.31 µM [activator, single point]"
19,Cc1cccc(N2C(=O)N(Cc3cccc(C#N)c3)c3ccccc3S2(=O)=O)c1,inactive
20,O=C(CCS(=O)(=O)c1cc(Br)cc2c1N(C(=O)C1CC1)CC2)N1CCN(c2cccc(C(F)(F)F)c2)CC1,"inconclusive: 35.5 µM [inhibitor, single point]"
21,COc1ccc(CCNC(=O)CS(=O)(=O)Cc2nc(-c3cccc(Cl)c3)oc2C)cc1OC,inactive
22,CN(CC(=O)Nc1ccccc1N1CCOCC1)CC(=O)Nc1ccc(F)c(F)c1F,inactive

# 3 structures already listed, sorted by number of heavy atoms, falling:
row,Structure (SMILES),Potency
17,O=C(O)CCC(=O)Nc1ccc(SSc2ccc(NC(=O)CCC(=O)O)cc2)cc1,"inconclusive: 6.31 µM [inhibitor, single point]"
19,Cc1cccc(N2C(=O)N(Cc3cccc(C#N)c3)c3ccccc3S2(=O)=O)c1,inactive
5,CCOC(=O)c1c(-c2ccccc2)nc2ccc(Cl)cn12,"inconclusive: 25.9 µM [inhibitor, partial curve, poor fit]"

# More results follow:

row,Structure (SMILES),Potency
1,CCc1cccc(NS(=O)(=O)c2ccc3c(c2)N(CC(=O)OC)C(=O)CS3)c1,inactive
2,COc1c(S(=O)(=O)NCCCN2CCOCC2)ccc(Cl)c1Cl,"inconclusive: 12.6 µM [activator, partial curve, poor fit]"
3,COc1ccc2sc(N(CCCN(C)C)C(=O)c3ccc(S(=O)(=O)N4CCCC4)cc3)nc2c1,inactive
4,Cc1ccccc1N(C(=O)c1ccccn1)C(C(=O)NCc1ccccc1)c1cccnc1 (stereo not given),"inconclusive: 1.58 µM [inhibitor, partial curve, poor fit]"
5,CCc1ccc(Nc2ncnc3nc[nH]c23)cc1,"inconclusive: 7.94 µM [inhibitor, partial curve, poor fit]"
6,CN(C)S(=O)(=O)c1cccc(NC(=O)c2ccc(N3CCOCC3)c([N+](=O)[O-])c2)c1,"inconclusive: 1.64 µM [inhibitor, partial curve, poor fit]"
7,COCCCNc1nc(SCc2ccccc2)nc2sc3c(c12)CCC3,inactive
8,O=S(=O)(Nc1ccc(-c2ccc(NS(=O)(=O)c3ccccc3)cc2)cc1)c1ccccc1,"inconclusive: 2.82 µM [inhibitor, partial curve, poor fit]"
9,Cc1ccc(-c2nn(C)c(=O)c3ccccc23)cc1CN1CCOCC1,inactive
10,N#Cc1c(-c2ccccc2)cc2nc3ccccc3n2c1N,"inconclusive: 3.16 µM [inhibitor, partial curve, poor fit]"
11,CN(C)C(=O)c1ccccc1-c1ccccc1,inactive
12,COCc1cc(Sc2ccc(OC)cc2)nc(-c2ccccc2)n1,"inconclusive: 35.5 µM [inhibitor, single point]"
13,Cc1ccc(OCC(=O)Nc2ccc3nn(-c4ccc(C)cc4)nc3c2)cc1,"inconclusive: 12.6 µM [activator, partial curve, poor fit]"
14,O=C(CCNC(=O)c1ccc(Br)cc1)Nc1ccccc1N1CCOCC1,"inconclusive: 0.224 µM [inhibitor, full curve, poor fit]"
15,COC(=O)Cn1cc(/C=C2\C(=O)NC(=O)N(c3ccccc3)C2=O)c2ccccc21,"inconclusive: 2 µM [activator, full curve, poor fit]"
16,CC(C)(C)Nc1nc(Cl)nc(NCc2ccccc2)n1,"inconclusive: 35.5 µM [inhibitor, single point]"
17,COc1ccc(C(=O)NCc2nnc(SCC(=O)NC3CCCCC3)n2C)cc1,"inconclusive: 11.2 µM [activator, partial curve, poor fit]"
18,Cn1c(CCNC(=O)c2ccco2)nc2cc(NC(=O)c3ccco3)ccc21,"inconclusive: 2.06 µM [activator, single point]"
19,O=C(Nc1ccc2c(c1)Cc1ccccc1-2)c1ccco1,"inconclusive: 7.3 µM [inhibitor, full curve, poor fit]"
20,CC(=O)N1CCCC1c1nc2ccccc2n1Cc1ccccc1F (stereo not given),inactive
21,COc1ccc(C(=O)C2CCCN(Cc3ccc4nonc4c3)C2)cc1F (stereo not given),"inconclusive: 35.5 µM [activator, single point]"
